Source: paper PMC10977697
These are yes or no findings as the source states them, for the method shown.

Amino acid sequences for entries named in this document (tags omitted). Residues count along the entry.
UniProt Q04721, residues 219-418: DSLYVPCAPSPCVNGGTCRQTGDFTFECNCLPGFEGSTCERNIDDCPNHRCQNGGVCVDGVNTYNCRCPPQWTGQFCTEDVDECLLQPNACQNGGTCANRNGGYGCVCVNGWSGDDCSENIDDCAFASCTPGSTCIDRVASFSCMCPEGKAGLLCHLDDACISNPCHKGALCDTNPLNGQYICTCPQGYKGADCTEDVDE

Molecular target: Notch2Long (Notch2 EGF6-EGF12) (human) (UniProt Q04721)
Assay: SPR; both purified

- binding: no binding
B1: N2L.EET03.50 (designed binder)
chain: GCGWTLWHCKQDSDCLAGCVCAPRWVCG
